Results as given in article PMC7447783, “Cryo-EM structure of trimeric Mycobacterium smegmatis succinate dehydrogenase with a membrane-anchor SdhF” (Nature Communications, 2020).
These are yes or no findings as the source states them, for the method shown. Binding seen in cells or lysates may run through a third protein. Here binding means that the protein was enriched with, or labelled near, the bait; the list need not be complete. Where a sequence is shown, tags or fusion partners need not be part of it.

Target: T1, SdhD subunit of M. smegmatis Sdh2 (membrane-anchored protein) with C-terminal 10x His tag (M. smegmatis) (UniProt A0QT09)
T1 sequence: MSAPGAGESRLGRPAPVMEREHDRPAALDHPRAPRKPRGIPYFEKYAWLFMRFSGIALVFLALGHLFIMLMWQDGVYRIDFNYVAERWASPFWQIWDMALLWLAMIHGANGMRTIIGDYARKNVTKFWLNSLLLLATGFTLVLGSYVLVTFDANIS
Assay: affinity purification with mass spectrometry; SdhD-10xHis as bait; 1% digitonin extract of M. smegmatis membranes on Ni-NTA, then Superdex 200 in 20 mM MOPS pH 7.4, 100 mM NaCl, 0.1% digitonin; components detected by SDS-PAGE and MS

binding	Substance
binds	SdhA subunit of M. smegmatis Sdh2 (FAD-binding protein)
binds	SdhB subunit of M. smegmatis Sdh2 (iron-sulfur protein)
binds	SdhC subunit of M. smegmatis Sdh2 (membrane-anchored protein)
